# Assay results from PubChem BioAssay AID445 (National Center for Advancing Translational Sciences (NCATS), 2006).
# Some of the results follow. The main result of the screen is listed elsewhere. These columns were measured beside it and carry no call. Most of these compounds were active or inconclusive in the main read-out, so they are no random draw. Potencies come from curve fits of mixed quality, noted in brackets.
# Experiment: IkB Signaling
# Details: ABC-DLBCL IkBa-CBG/CBR dual luciferase ratio (green luciferase fused to IkBa over red control in OCI-Ly3 lymphoma cells), 4 h; measured here: control luc red channel unless noted
# How it was run: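 In this assay, an IκBα–CBG68 fusion accumulates when IKK-driven degradation is blocked; native CBR normalizes for cell number. OCI-Ly3 cells were treated 4 h with compound and doxycycline, then green and red light read after Chroma-Glo addition.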
row,Structure (SMILES),AC50
1,CCCCOc1ccc(C(=O)Nc2ccc3c(c2)CCCN3S(=O)(=O)c2ccc(C)cc2)cc1,"6.31 µM [falling, partial curve]"
2,O=C(NCc1ccccn1)c1nn(-c2ccccc2F)nc1CO,"25.1 µM [falling, single point]"
3,CCOc1ccccc1CN1CCc2nc(Nc3ccccc3)ncc2C1,"39.8 µM [falling, single point]"
4,Fc1ccc(-n2ncc3c(N4CCN(Cc5ccccc5)CC4)ncnc32)cc1,"20 µM [falling, partial curve, poor fit]"
5,COc1cccc(CNC(=O)CSc2n[nH]c(-c3ccccc3Cl)n2)c1,"20 µM [falling, partial curve]"
6,CCc1ccc(CNC(=O)c2ccc3c(c2)nc2n3CCCCC2)cc1,"15.8 µM [falling, partial curve]"
7,COc1ccc(OC)c(CCNC(=O)CN2C(=O)COc3ccc(S(=O)(=O)N4CCCCCC4)cc32)c1,"39.8 µM [falling, single point]"
8,COc1cccc(CNC(=O)CCNS(=O)(=O)c2ccc3c(c2)CCCC(=O)N3)c1,"0.501 µM [falling, full curve]"
9,O=C(Nc1c2c(nn1-c1ccc(Cl)cc1)CS(=O)(=O)C2)c1cccc(Cl)c1,"39.8 µM [falling, single point]"
10,O=C(CSc1ccc2nnc(CCNS(=O)(=O)c3ccccc3)n2n1)Nc1ccccc1C(F)(F)F,"0.794 µM [rising, full curve, poor fit]"
11,CCc1cccc(NC(=O)CN2c3ccccc3S(=O)(=O)c3ccccc32)c1,"12.6 µM [falling, partial curve]"
12,O=C(c1ccc(F)cc1)n1nc(-c2ccc(Cl)cc2)nc1NCc1ccco1,"10 µM [falling, partial curve]"
13,COc1ccccc1NC(=O)Cn1nc(C)n2cccc2c1=O,"12.6 µM [falling, partial curve]"
14,Cc1ccc(CNC(=O)Cn2ccn(-c3cc(C)cc(C)c3)c(=O)c2=O)cc1,"39.8 µM [falling, single point]"
15,CCn1c(SCC(=O)Nc2nc(-c3ccc(C)cc3)cs2)nnc1-c1ccccc1O,"2.51 µM [falling, full curve]"
16,O=C(CSc1nc2ccccc2nc1Cc1ccccc1)N1CCCc2ccccc21,"39.8 µM [falling, single point]"
17,CCc1cc2c(=O)n(Cc3ccco3)c(SCC(=O)N3CCCc4ccccc43)nc2s1,"10 µM [falling, partial curve]"
18,CCc1ccc2occ(CC(=O)N(Cc3ccc(N(C)C)cc3)C3CCS(=O)(=O)C3)c2c1 (stereo not drawn),"15.8 µM [falling, partial curve]"
19,CCOC(=O)c1cccc(NC(=O)c2sc3nc[nH]c(=O)c3c2C)c1,"39.8 µM [falling, single point]"
20,Cc1oc(-c2ccc(Cl)cc2)nc1CN1CCCC(C(=O)NCc2ccco2)C1 (stereo not drawn),"12.6 µM [falling, partial curve]"
21,O=Nc1ccc(Nc2ccccc2)cc1,"5.01 µM [falling, partial curve]"

# Look-ups from above:
# `O=C(CSc1ccc2nnc(CCNS(=O)(=O)c3ccccc3)n2n1)Nc1ccccc1C(F)(F)F` – AC50: 0.794 µM [rising, full curve, poor fit]
# `CCOc1ccccc1CN1CCc2nc(Nc3ccccc3)ncc2C1` – AC50: 39.8 µM [falling, single point]
# `CCCCOc1ccc(C(=O)Nc2ccc3c(c2)CCCN3S(=O)(=O)c2ccc(C)cc2)cc1` – AC50: 6.31 µM [falling, partial curve]
# `CCc1ccc(CNC(=O)c2ccc3c(c2)nc2n3CCCCC2)cc1` – AC50: 15.8 µM [falling, partial curve]

# The list goes on.

row,Structure (SMILES),AC50
1,CCc1nnc(NC(=O)CSc2nc3c([nH]c4ccccc43)c(=O)n2-c2ccc(OC)cc2)s1,"1 µM [rising, full curve]"
2,CCCCn1c(NC(=O)CC)c(C#N)c2nc3ccccc3nc21,"25.1 µM [falling, single point]"
3,Cc1ccc2cc3c(N)c(C(=O)N4CCOCC4)sc3nc2c1,"12.6 µM [falling, partial curve]"
4,O=C(C1CCCCC1)N(Cc1cccnc1)c1nc2ccc(F)cc2s1,"20 µM [falling, partial curve]"
5,COc1ccc2[nH]c3c(=O)n(CCCCC(=O)N4CCCC4)c(=S)[nH]c3c2c1,"12.6 µM [falling, partial curve]"
6,COc1ccc(N2CCN(CC(=O)Nc3nnc(-c4ccccc4)s3)CC2)cc1,"15.8 µM [falling, partial curve]"
7,COc1cc(-c2nnc(COc3ccc4ccccc4c3)o2)cc(OC)c1OC,"7.94 µM [falling, full curve, poor fit]"
8,CC(=O)c1cccc(Nc2nc(-c3ccccc3Cl)nc3ccccc23)c1,"3.16 µM [falling, full curve]"
9,Cc1ccccc1Cn1c2ccccc2c2cnn(CC(=O)NCCc3ccc(Cl)cc3)c(=O)c21,"6.31 µM [falling, partial curve]"
10,Cc1ccc2[nH]c3c(=O)n(CC(=O)N4CCCC(C)C4)ncc3c2c1 (stereo not drawn),"39.8 µM [falling, single point]"
11,CC(CCCc1ccccc1)NC(=O)c1nn(-c2ccc(Cl)cc2)nc1CO (stereo not drawn),"12.6 µM [falling, partial curve]"
12,Cn1ncc(C#N)c1/N=C/N(Cc1ccccc1)Cc1ccccc1,"25.1 µM [falling, partial curve]"
13,CCOc1ccccc1NC(=O)c1cc2c(=O)[nH]c3ccccc3c2s1,"0.02 µM [falling, full curve]"
14,O=C(NC1CCCCC1)c1ccc2c(c1)N(Cc1cccc(Cl)c1)C(=O)c1ccccc1S2=O (stereo not drawn),"20 µM [falling, single point]"
15,CCc1ccc(-c2nc(CSCC(=O)NCc3ccc(C)cc3)c(C)o2)cc1,"15.8 µM [falling, partial curve]"
16,O=C(Nc1cccnc1)c1cn(-c2ccccc2)nc1-c1cccs1,"20 µM [falling, partial curve]"
17,CC(=O)c1cc2c(cc1N/C(=N/S(=O)(=O)c1ccc(F)cc1)c1ccccc1)OCO2,"3.16 µM [rising, partial curve]"
18,O=C(Cn1ncc2c3ccccc3n(Cc3cccc(Cl)c3)c2c1=O)N1CCCCCC1,"20 µM [falling, single point]"
19,CCOc1ccc(CCNC(=O)Cn2c(C)c3cnn(-c4ccccc4)c(=O)c3c2C)cc1,"10 µM [falling, single point]"
20,CCOc1ncccc1C(=O)Nc1cccc(C(=O)Nc2cccc(S(=O)(=O)CCO)c2)c1,"3.16 µM [falling, full curve, poor fit]"
21,N#CCCn1c(SCC(=O)c2c[nH]c3ccccc23)nc2ccccc21,"3.98 µM [falling, partial curve]"

row,Structure (SMILES),AC50
1,Cc1ccc(-n2nnnc2SCc2nnc(-c3ccccc3Br)o2)cc1,"39.8 µM [falling, single point]"
2,CCOc1ccc(CC(=O)NCc2ccc3c(c2)CCN3C(C)=O)cc1OCC,"3.98 µM [rising, partial curve]"
3,CC(C)(C)OC(=O)N1CCC(c2c(C(=O)N3CCN(c4ncccn4)CC3)cnn2-c2cccc(F)c2)CC1,"3.98 µM [falling, partial curve]"
4,Cc1ccc(C)c(S(=O)(=O)c2nnn3c2nc(N2CCCCC2)c2sccc23)c1,"7.94 µM [falling, full curve]"
5,COc1ccc(OC)c(NC(=O)Cn2cc(C(=O)c3ccc(Cl)cc3)c(=O)c3cc(OC)ccc32)c1,"20 µM [falling, partial curve]"
6,COc1cc2c(cc1OC)n(CC(=O)c1ccc(C)cc1)c(=O)n1nc(CCn3nc(C)cc3C)nc21,"39.8 µM [falling, single point]"
7,COc1ccc(NC(=O)c2ccc3c(c2)CCN3S(=O)(=O)c2ccccc2)cc1,"25.1 µM [falling, single point]"
8,Cc1cccc(-c2c3c(=O)n(C)c(=O)n(C)c3c3cccnn23)c1,"3.16 µM [rising, full curve]"
9,Cc1noc2ncnc(N3CCCC(C(=O)Nc4cccc(C(F)(F)F)c4)C3)c12 (stereo not drawn),"15.8 µM [falling, partial curve]"
10,CCc1ccc(NC(=O)c2ccc(F)c(S(=O)(=O)N3CCN(c4cc(C)ccc4C)CC3)c2)cc1,"10 µM [falling, partial curve]"
11,CC(C)c1ccc(NC(=O)Cn2c(=O)oc3cc(S(=O)(=O)N4CCCC4)ccc32)cc1,"12.6 µM [falling, partial curve]"
12,COc1ccc(-c2nc(S(=O)(=O)c3ccc(C)cc3)c(NCc3ccccc3)o2)cc1,"10 µM [falling, full curve, poor fit]"
13,CCc1c(C)c(C#N)c2nc3ccccc3n2c1Nc1cccc(C(F)(F)F)c1,"10 µM [falling, partial curve]"
14,O=C(NCCCN1CCN(c2ccc(F)cc2)CC1)c1ccc2nc(CCc3ccccc3)oc2c1,"20 µM [falling, partial curve]"
15,C=CCn1c(SCC(=O)/C(C#N)=C(\C)N)nc2sc(CC)cc2c1=O,"25.1 µM [falling, single point]"
16,CCCOCc1cc(CN2CCN(c3ccccc3OC)CC2)c(O)c2ncccc12,"12.6 µM [falling, partial curve]"
17,O=C(NCc1ccc(Cl)cc1)c1cnc(N2CCOCC2)c2ccccc12,"20 µM [falling, single point]"
18,Cc1ccc(CSCCNC(=O)CN(c2cccc(C)c2C)S(=O)(=O)c2ccccc2)cc1,"10 µM [falling, partial curve]"
19,CC1CCCN(S(=O)(=O)c2cc(C(=O)NCCc3ccccc3)n(C)c2)C1 (stereo not drawn),"10 µM [falling, partial curve]"
20,COc1ccc(CNC(=O)c2ccc3c(c2)CCN3S(=O)(=O)c2ccccc2)cc1,"15.8 µM [falling, partial curve]"
21,COc1ccc(N2CCN(c3nc4ccccc4n4c(C)nnc34)CC2)cc1,"31.6 µM [falling, partial curve, poor fit]"
